According to publication doi:10.1101/2024.02.13.579840:
No constants are given. Whether binding was seen depends on the method and setting. In cells and extracts the contact can be indirect. Some results given as binding are weak or reduced against the parent protein; the word gives no strength. For some of these results: Sequences can lack the tags named with a protein.

Sequences of proteins named here, by UniProt entry; tags and fusion partners are left off.
UniProt Q9UHY1: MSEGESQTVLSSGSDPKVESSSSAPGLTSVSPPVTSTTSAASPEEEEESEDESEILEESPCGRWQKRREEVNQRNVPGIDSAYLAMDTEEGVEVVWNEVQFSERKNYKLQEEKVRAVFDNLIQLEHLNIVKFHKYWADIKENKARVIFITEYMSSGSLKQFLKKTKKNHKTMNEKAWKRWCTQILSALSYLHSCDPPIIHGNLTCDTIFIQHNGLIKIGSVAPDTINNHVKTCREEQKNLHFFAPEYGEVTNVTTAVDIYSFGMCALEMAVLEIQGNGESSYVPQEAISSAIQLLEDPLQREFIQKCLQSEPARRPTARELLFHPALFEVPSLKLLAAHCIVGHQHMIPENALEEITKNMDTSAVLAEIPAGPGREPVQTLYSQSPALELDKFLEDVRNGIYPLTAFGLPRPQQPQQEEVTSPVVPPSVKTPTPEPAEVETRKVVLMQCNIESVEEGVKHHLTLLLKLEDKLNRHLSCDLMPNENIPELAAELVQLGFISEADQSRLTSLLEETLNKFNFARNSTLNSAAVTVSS
UniProt Q9H4A3: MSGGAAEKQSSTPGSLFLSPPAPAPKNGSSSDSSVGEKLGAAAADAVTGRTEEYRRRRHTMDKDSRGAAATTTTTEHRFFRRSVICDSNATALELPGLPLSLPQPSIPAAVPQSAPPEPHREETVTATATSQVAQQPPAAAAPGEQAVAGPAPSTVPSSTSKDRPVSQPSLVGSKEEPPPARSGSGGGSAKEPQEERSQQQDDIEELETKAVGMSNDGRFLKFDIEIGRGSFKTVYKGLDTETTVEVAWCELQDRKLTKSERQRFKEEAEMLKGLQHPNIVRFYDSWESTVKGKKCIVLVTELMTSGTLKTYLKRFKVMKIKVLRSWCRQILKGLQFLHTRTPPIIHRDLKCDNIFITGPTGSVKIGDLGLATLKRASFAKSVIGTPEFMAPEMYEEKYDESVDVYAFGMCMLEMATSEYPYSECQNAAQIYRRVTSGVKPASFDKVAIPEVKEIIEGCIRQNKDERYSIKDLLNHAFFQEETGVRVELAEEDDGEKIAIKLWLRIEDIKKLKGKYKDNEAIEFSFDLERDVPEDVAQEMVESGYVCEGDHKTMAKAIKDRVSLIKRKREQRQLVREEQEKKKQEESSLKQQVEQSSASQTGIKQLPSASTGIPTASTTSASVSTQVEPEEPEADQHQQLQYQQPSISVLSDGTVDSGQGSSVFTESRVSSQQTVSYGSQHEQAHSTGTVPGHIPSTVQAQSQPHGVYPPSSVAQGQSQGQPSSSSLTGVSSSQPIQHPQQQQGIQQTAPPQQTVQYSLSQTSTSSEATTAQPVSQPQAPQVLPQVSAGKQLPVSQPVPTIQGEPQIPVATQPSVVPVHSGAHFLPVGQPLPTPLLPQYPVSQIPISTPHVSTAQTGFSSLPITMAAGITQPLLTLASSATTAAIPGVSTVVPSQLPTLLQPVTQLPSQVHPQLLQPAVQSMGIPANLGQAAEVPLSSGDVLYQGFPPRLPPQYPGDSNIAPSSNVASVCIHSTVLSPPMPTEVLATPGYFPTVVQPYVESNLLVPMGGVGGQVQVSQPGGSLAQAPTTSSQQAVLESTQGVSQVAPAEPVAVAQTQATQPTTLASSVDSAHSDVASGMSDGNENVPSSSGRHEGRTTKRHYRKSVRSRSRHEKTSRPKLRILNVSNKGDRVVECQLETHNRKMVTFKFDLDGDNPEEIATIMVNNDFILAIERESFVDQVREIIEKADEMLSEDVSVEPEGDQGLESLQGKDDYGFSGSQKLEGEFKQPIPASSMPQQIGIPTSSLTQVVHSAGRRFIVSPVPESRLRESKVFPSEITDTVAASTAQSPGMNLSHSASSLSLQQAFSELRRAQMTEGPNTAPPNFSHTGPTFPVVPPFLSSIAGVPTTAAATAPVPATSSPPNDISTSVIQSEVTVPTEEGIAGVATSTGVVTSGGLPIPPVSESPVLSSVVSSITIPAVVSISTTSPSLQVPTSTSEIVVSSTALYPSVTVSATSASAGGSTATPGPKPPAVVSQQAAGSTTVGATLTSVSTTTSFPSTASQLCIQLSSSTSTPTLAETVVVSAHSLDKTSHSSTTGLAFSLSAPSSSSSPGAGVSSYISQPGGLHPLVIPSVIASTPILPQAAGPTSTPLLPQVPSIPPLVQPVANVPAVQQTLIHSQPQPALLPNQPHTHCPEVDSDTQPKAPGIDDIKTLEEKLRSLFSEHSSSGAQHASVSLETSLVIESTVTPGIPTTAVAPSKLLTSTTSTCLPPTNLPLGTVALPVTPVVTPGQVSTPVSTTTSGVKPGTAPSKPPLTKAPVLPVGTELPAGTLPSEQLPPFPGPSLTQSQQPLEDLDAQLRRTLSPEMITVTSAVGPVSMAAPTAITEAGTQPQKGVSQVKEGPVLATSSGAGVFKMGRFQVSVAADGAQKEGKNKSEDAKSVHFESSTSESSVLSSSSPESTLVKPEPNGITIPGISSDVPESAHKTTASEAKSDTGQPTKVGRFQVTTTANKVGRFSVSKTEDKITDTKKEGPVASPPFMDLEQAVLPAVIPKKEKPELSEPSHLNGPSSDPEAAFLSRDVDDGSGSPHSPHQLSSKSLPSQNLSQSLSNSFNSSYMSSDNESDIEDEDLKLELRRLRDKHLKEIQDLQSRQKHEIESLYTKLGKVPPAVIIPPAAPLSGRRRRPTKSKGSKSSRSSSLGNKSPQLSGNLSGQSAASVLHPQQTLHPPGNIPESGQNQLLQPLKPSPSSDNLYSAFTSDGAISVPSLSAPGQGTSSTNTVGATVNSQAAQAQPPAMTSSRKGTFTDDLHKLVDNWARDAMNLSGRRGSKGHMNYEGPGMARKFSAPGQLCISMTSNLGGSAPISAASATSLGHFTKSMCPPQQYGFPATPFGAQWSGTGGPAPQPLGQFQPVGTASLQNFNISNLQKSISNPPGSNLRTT

Legend:
Assay in all cases: co-IP
[1] = molecular target: T1, FLAG-tagged TSC22D2-Cterm (258-780) (human) (UniProt O75157)
T1 sequence: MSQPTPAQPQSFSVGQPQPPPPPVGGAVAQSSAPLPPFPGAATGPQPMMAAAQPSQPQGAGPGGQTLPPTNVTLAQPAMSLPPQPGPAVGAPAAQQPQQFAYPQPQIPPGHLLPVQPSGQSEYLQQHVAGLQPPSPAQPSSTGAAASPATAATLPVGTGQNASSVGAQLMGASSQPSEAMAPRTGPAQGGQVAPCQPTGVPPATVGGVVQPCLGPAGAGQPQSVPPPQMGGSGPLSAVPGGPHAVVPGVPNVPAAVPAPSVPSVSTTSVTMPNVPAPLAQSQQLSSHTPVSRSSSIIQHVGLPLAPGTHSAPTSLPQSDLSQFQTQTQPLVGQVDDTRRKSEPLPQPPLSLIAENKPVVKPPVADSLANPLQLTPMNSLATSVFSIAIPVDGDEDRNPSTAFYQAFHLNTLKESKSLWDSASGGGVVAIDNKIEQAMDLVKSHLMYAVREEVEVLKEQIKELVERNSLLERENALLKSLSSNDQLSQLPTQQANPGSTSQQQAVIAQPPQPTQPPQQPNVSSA

[2] = molecular target: T2, FLAG-tagged full-length (FL) TSC22D2 (human) (UniProt O75157)
T2 sequence: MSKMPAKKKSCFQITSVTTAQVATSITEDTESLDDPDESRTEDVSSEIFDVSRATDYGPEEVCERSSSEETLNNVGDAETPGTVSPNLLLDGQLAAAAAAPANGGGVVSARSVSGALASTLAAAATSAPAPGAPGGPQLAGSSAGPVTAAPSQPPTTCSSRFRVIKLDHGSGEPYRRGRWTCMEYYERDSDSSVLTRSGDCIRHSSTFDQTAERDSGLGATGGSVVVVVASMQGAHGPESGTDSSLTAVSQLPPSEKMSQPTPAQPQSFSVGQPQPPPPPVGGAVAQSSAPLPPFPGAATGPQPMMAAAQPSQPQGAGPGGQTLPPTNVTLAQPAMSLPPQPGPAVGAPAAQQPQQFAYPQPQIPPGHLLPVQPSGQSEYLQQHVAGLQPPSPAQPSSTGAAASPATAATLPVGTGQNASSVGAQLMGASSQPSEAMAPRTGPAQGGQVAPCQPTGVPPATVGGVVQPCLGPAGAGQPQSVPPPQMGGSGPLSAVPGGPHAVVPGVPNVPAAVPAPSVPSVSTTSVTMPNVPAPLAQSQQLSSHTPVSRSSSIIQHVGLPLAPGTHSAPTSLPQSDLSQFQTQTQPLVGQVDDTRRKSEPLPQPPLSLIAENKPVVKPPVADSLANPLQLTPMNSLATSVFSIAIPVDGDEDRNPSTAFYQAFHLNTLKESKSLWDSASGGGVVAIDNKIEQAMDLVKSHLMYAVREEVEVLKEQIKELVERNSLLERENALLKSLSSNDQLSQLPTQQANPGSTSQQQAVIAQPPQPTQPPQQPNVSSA

[3] = molecular target: FLAG-tagged full-length (FL) NRBP1 (human) (UniProt Q9UHY1)
[4] = molecular target: T3, FLAG-tagged TSC22D2-Nterm (1-257) (human) (UniProt O75157)
T3 sequence: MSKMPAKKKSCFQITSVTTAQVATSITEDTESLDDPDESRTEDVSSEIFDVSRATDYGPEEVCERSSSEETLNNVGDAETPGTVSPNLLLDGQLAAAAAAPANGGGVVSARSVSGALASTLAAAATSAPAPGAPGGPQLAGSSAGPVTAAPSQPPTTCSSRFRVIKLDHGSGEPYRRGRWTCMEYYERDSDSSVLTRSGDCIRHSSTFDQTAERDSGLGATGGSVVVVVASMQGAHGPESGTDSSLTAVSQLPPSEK

binding [1]: no binding | binding [2]: binds | binding [3]: binds | binding [4]: binds
Substance: endogenous WNK1 (HEK293T) (from UniProt Q9H4A3 1-2382)
